Numbering of substitutions follows the chain as printed. Names and notes keep the numbering of the source. No constants are given. Whether binding was seen depends on the method and setting. Some entries that bind do so weakly or less than the wild type.
B1: U2AF1, Q01081 1-240 (protein)
chain: MAEYLASIFGTEKDKVNCSFYFKIGACRHGDRCSRLHNKPTFSQTIALLNIYRNPQNSSQSADGLRCAVSDVEMQEHYDEFFEEVFTEMEEKYGEVEEMNVCDNLGDHLVGNVYVKFRREEDAEKAVIDLNNRWFNGQPIHAELSPVTDFREACCRQYEMGECTRGGFCNFMHLKPISRELRRELYGRRRKKHRSRSRSRERRSRSRDRGRGGGGGGGGGGGGRERDRRRSRDRERSGRF
B2: RBFOX2 (protein, UniProt O43251 1-390)
chain: MQNEPLTPGYHGFPARDSQGNQEPTTTPDAMVQPFTTIPFPPPPQNGIPTEYGVPHTQDYAGQTGEHNLTLYGSTQAHGEQSSNSPSTQNGSLTTEGGAQTDGQQSQTQSSENSESKSTPKRLHVSNIPFRFRDPDLRQMFGQFGKILDVEIIFNERGSKGFGFVTFENSADADRAREKLHGTVVEGRKIEVNNATARVMTNKKMVTPYANGWKLSPVVGAVYGPELYAASSFQADVSLGNDAAVPLSGRGGINTYIPLISLPLVPGFPYPTAATTAAAFRGAHLRGRGRTVYGAVRAVPPTAIPAYPGVVYQDGFYGADLYGGYAAYRYAQPATATAATAAAAAAAAYSDGYGRVYTADPYHALAPAASYGVGAVASLYRGGYSRFAPY
B3: SRRM3 (protein, UniProt A6NNA2 1-597)
chain: MSSTVNNGAASMQSTPDAANGFPQPSSSSGTWPRAEEELRAAEPGLVKRAHREILDHERKRRVELKCMELQEMMEEQGYSEEEIRQKVGTFRQMLMEKEGVLTREDRPGGHIVAETPRLTEGAEPGLEYAPFDDDDGPVDCDCPASCYRGHRGYRTKHWSSSSASPPPKKKKKKKGGHRRSRKKRRLESECSCGSSSPLRKKKKSVKKHRRDRSDSGSRRKRRHRSRSSKCKRKEKNKEKKRPHTESPGRRSHRHSSGSSHSPSLSSHYSDSRSPSRLSPKHRDEGRKTGSQRSSGSRSPSPSGGSGWGSPQRNGGSGQRSGAHGGRPGSAHSPPDKPSSPSPRVRDKAAAAAPTPPARGKESPSPRSAPSSQGRGGRAAGGAGRRRRRRRRRRRSRSSASAPRRRGRRRPRPAPPRGSSRSLSRARSSSDSGSGRGAPGPGPEPGSERGHGGHGKRAKERPPRARPASTSPSPGAHGRRGGPEGKSSSRSPGPHPRSWSSSRSPSKSRSRSAEKRPHSPSRSPSPKKPLSRDKDGEGRARHSEAEATRARRRSRSYSPIRKRRRDSPSFMEPRRITSAASVLFHTTGPAPLPPPAA
B4: SRSF11 (protein, UniProt Q05519 1-484)
chain: MSNTTVVPSTAGPGPSGGPGGGGGGGGGGGGTEVIQVTNVSPSASSEQMRTLFGFLGKIDELRLFPPDDSPLPVSSRVCFVKFHDPDSAVVAQHLTNTVFVDRALIVVPYAEGVIPDEAKALSLLAPANAVAGLLPGGGLLPTPNPLTQIGAVPLAALGAPTLDPALAALGLPGANLNSQSLAADQLLKLMSTVDPKLNHVAAGLVSPSLKSDTSSKEIEEAMKRVREAQSLISAAIEPDKKEEKRRHSRSRSRSRRRRTPSSSRHRRSRSRSRRRSHSKSRSRRRSKSPRRRRSHSRERGRRSRSTSKTRDKKKEDKEKKRSKTPPKSYSTARRSRSASRERRRRRSRSGTRSPKKPRSPKRKLSRSPSPRRHKKEKKKDKDKERSRDERERSTSKKKKSKDKEKDRERKSESDKDVKQVTRDYDEEEQGYDSEKEKKEEKKPIETGSPKTKECSVEKGTGDSLRESKVNGDDHHEEDMDMSD
B5: RNPS1 (protein, UniProt Q15287 1-305)
chain: MDLSGVKKKSLLGVKENNKKSSTRAPSPTKRKDRSDEKSKDRSKDKGATKESSEKDRGRDKTRKRRSASSGSSSTRSRSSSTSSSGSSTSTGSSSGSSSSSASSRSGSSSTSRSSSSSSSSGSPSPSRRRHDNRRRSRSKSKPPKRDEKERKRRSPSPKPTKVHIGRLTRNVTKDHIMEIFSTYGKIKMIDMPVERMHPHLSKGYAYVEFENPDEAEKALKHMDGGQIDGQEITATAVLAPWPRPPPRRFSPPRRMLPPPPMWRRSPPRMRRRSRSPRRRSPVRRRSRSPGRRRHRSRSSSNSSR
B6: NONO (protein, UniProt Q15233 1-471)
chain: MQSNKTFNLEKQNHTPRKHHQHHHQQQHHQQQQQQPPPPPIPANGQQASSQNEGLTIDLKNFRKPGEKTFTQRSRLFVGNLPPDITEEEMRKLFEKYGKAGEVFIHKDKGFGFIRLETRTLAEIAKVELDNMPLRGKQLRVRFACHSASLTVRNLPQYVSNELLEEAFSVFGQVERAVVIVDDRGRPSGKGIVEFSGKPAARKALDRCSEGSFLLTTFPRPVTVEPMDQLDDEEGLPEKLVIKNQQFHKEREQPPRFAQPGSFEYEYAMRWKALIEMEKQQQDQVDRNIKEAREKLEMEMEAARHEHQVMLMRQDLMRRQEELRRMEELHNQEVQKRKQLELRQEEERRRREEEMRRQQEEMMRRQQEGFKGTFPDAREQEIRMGQMAMGGAMGINNRGAMPPAPVPAGTPAPPGPATMMPDGTLGLTPPTTERFGQAATMEGIGAIGGTPPAFNRAAPGAEFAPNKRRRY
B7: RBM10 I316F (protein, UniProt P98175 1-930)
chain: MEYERRGGRGDRTGRYGATDRSQDDGGENRSRDHDYRDMDYRSYPREYGSQEGKHDYDDSSEEQSAEDSYEASPGSETQRRRRRRHRHSPTGPPGFPRDGDYRDQDYRTEQGEEEEEEEDEEEEEKASNIVMLRMLPQAATEDDIRGQLQSHGVQAREVRLMRNKSSGQSRGFAFVEFSHLQDATRWMEANQHSLNILGQKVSMHYSDPKPKINEDWLCNKCGVQNFKRREKCFKCGVPKSEAEQKLPLGTRLDQQTLPLGGRELSQGLLPLPQPYQAQGVLASQALSQGSEPSSENANDTIILRNLNPHSTMDSFLGALAPYAVLSSSNVRVIKDKQTQLNRGFAFIQLSTIVEAAQLLQILQALHPPLTIDGKTINVEFAKGSKRDMASNEGSRISAASVASTAIAAAQWAISQASQGGEGTWATSEEPPVDYSYYQQDEGYGNSQGTESSLYAHGYLKGTKGPGITGTKGDPTGAGPEASLEPGADSVSMQAFSRAQPGAAPGIYQQSAEASSSQGTAANSQSYTIMSPAVLKSELQSPTHPSSALPPATSPTAQESYSQYPVPDVSTYQYDETSGYYYDPQTGLYYDPNSQYYYNAQSQQYLYWDGERRTYVPALEQSADGHKETGAPSKEGKEKKEKHKTKTAQQIAKDMERWARSLNKQKENFKNSFQPISSLRDDERRESATADAGYAILEKKGALAERQHTSMDLPKLASDDRPSPPRGLVAAYSGESDSEEEQERGGPEREEKLTDWQKLACLLCRRQFPSKEALIRHQQLSGLHKQNLEIHRRAHLSENELEALEKNDMEQMKYRDRAAERREKYGIPEPPEPKRRKYGGISTASVDFEQPTRDGLGSDNIGSRMLQAMGWKEGSGLGRKKQGIVTPIEAQTRVRGSGLGARGSSYGVTSTESYKETLHKTMVTRFNEAQ
B8: RBM10 R343G (protein, UniProt P98175 1-930)
chain: B7 chain with F316I, R343G
B9: RBM10 V354E (protein, UniProt P98175 1-930)
chain: B7 chain with F316I, V354E

Chains of the proteins cited; added tags and fusions are not shown.
UniProt Q01844: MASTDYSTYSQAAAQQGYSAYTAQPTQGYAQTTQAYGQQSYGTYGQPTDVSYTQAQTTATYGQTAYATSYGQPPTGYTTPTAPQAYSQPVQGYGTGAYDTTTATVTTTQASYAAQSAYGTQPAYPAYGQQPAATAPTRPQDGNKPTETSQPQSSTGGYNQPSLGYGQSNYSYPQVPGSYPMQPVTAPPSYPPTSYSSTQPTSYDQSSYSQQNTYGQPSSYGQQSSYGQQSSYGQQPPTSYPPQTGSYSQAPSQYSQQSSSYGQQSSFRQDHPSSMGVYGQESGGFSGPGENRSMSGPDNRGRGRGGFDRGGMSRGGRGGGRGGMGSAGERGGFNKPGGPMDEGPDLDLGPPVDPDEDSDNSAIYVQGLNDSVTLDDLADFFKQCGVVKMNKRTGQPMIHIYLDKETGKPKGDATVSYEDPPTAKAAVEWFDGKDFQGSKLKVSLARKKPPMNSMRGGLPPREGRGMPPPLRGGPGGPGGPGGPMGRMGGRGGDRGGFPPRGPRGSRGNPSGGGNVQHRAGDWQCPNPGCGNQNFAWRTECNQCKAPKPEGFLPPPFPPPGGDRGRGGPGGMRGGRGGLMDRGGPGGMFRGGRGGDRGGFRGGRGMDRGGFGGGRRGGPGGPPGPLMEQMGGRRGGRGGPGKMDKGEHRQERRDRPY
UniProt P26599: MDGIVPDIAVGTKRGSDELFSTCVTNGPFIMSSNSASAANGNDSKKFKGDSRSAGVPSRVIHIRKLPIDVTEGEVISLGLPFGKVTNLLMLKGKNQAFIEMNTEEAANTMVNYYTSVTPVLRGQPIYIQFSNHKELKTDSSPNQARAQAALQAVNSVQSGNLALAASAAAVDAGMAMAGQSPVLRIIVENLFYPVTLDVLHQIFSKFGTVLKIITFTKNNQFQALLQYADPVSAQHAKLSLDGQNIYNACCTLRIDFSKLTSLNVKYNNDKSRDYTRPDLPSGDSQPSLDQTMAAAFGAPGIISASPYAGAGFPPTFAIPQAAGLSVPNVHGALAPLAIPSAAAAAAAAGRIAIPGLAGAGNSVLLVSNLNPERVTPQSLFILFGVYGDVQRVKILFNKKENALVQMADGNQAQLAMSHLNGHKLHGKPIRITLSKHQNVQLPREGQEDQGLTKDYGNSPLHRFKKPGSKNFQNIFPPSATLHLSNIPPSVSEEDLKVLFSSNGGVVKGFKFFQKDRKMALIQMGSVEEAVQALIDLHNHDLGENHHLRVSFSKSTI
UniProt Q9UKA9: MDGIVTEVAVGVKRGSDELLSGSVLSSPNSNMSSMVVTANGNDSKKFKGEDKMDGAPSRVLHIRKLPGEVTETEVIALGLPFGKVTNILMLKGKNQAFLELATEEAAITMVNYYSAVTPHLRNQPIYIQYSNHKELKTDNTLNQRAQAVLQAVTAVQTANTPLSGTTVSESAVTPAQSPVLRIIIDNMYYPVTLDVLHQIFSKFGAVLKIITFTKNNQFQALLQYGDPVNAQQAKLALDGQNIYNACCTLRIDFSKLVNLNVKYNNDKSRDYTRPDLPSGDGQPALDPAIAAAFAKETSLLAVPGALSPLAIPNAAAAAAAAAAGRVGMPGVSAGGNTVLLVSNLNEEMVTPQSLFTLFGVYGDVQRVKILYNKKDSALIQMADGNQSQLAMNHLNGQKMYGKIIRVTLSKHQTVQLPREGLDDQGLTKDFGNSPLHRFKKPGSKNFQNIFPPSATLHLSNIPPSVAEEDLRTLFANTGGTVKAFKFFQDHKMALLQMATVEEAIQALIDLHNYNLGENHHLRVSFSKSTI

Tests used:
Test in all cases: two-hybrid
[1] = molecular target: U2AF2 (human), P26368; settings: remark: other sources report otherwise
[2] = molecular target: T1, QKI (human) (UniProt Q96PU8)
T1 sequence: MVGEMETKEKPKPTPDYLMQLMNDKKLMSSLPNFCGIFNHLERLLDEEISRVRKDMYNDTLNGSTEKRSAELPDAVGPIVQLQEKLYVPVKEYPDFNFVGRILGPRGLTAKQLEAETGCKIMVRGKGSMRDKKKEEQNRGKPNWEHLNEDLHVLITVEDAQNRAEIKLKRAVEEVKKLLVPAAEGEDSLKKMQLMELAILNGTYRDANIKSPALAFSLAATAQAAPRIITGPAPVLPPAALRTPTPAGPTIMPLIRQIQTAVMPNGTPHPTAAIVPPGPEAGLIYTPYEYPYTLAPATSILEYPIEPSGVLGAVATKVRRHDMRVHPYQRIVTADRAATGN

[3] = molecular target: T2, SRRM4 (human) (UniProt A7MD48)
T2 sequence: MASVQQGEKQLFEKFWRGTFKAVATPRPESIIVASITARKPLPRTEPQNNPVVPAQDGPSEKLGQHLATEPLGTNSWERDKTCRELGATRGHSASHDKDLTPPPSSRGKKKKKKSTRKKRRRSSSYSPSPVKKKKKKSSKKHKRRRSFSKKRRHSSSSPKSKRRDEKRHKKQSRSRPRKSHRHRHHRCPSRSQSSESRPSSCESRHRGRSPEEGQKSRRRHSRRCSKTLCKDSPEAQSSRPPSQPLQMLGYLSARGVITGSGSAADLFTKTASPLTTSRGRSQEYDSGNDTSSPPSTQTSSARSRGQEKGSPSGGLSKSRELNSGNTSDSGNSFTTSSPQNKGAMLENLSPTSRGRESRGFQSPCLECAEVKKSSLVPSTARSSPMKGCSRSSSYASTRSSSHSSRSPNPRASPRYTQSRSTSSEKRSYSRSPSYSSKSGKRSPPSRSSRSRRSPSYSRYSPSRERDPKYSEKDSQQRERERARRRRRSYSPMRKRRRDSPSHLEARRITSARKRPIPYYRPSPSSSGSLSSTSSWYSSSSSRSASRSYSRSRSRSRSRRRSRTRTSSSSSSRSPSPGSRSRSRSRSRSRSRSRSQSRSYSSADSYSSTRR

[4] = molecular target: EWSR1 (human) (UniProt Q01844)
[5] = molecular target: T3, NEXT component RBM7 (human) (UniProt Q9Y580)
T3 sequence: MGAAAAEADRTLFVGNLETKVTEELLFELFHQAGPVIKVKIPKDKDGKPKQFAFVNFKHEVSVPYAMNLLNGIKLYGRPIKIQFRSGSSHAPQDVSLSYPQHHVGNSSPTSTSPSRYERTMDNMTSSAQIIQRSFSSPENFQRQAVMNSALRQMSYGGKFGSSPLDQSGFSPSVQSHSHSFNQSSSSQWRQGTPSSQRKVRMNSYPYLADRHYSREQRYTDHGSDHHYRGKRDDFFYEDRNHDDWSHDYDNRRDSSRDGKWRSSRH

[6] = molecular target: PTBP1 (human) (UniProt P26599)
[7] = molecular target: PTBP2 (human) (UniProt Q9UKA9)

Binder | binding [3] | binding [5] | binding [6] | binding [7] | also measured
B1 |  |  |  |  | binding [1]: binds
B2 |  |  |  |  | binding [2]: binds
B3 | binds |  |  |  | 
B4 | binds |  |  |  | 
B5 | binds |  |  |  | 
B6 |  |  |  |  | binding [4]: binds
B7 |  | no binding | no binding | no binding | 
B8 |  | no binding | no binding | no binding | 
B9 |  | no binding | no binding | no binding | 
